# Data published in PMC12686569, “FaMYB63 and FvWYRKY75 Activate FvPR10.14 Boosting Strawberry Immunity Against Powdery Mildew”.
# Key:
# FaMYB63 [1] = test: EMSA; settings: wild-type competitor distinctly reduced binding; EMSA Kit (Beyotime), according to Wang, Shi, et al. 2022; pH and temperature not stated; recombinant protein; protein details: GST
# FaMYB63 [2] = test: competition with a labelled probe; settings: mutant competitor against N1 probe did not affect binding; EMSA Kit (Beyotime), according to Wang, Shi, et al. 2022; pH and temperature not stated; recombinant protein; protein details: GST
Sequence,binding result (FaMYB63 [1]),binding result (FaMYB63 [2])
CATTTTATTTTGTTCACTTCACCATCCAAAGCCAATTAGGTACCAAT (double strand) [FvPR10.14-P (FaMYB63 probe)],binds,–
CATTTTATTTTGTTCACAAGGAGAGAAGGAGCCAATTAGGTACCAAT (double strand) [FvPR10.14-mP (FaMYB63 mutant probe)],–,no binding

# The exact form of at least one protein or probe is not confirmed. For some assays here: Negatives hold for the conditions tested.
